# No constants are given. Whether binding was seen depends on the method and setting. In cells and extracts the contact can be indirect. A yes stands for co-enrichment or nearness to the bait. Other partners may have been found.
# Protein sequences, listed by entry. Tags and fused reporters are not part of them.
# UniProt Q9IH62: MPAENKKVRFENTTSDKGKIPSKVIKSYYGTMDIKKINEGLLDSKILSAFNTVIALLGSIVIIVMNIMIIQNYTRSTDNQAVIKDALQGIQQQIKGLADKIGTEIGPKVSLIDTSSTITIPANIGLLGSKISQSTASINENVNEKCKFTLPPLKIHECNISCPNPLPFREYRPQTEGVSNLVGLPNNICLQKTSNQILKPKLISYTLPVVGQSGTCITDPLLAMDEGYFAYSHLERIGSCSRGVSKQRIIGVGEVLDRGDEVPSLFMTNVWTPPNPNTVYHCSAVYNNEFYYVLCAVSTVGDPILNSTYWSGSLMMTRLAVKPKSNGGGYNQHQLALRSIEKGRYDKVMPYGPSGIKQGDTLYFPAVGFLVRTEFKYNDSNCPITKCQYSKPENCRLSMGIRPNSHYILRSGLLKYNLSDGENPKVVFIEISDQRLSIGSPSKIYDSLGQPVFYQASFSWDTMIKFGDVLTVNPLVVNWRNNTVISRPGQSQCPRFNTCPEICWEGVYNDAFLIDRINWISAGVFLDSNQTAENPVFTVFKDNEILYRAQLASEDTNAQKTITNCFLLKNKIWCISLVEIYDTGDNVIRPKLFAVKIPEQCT
# B1: Ephrin B3 (receptor, UniProt Q15768 28-340)
# chain: LSLEPVYWNSANKRFQAEGGYVLYPQIGDRLDLLCPRARPPGPHSSPNYEFYKLYLVGGAQGRRCEAPPAPNLLLTCDRPDLDLRFTIKFQEYSPNLWGHEFRSHHDYYIIATSDGTREGLESLQGGVCLTRGMKVLLRVGQSPRGGAVPRKPVSEMPMERDRGAAHSLEPGKENLPGDPTSNATSRGAEGPLPPPSMPAVAGAAGGLALLLLGVAGAGGAMCWRRRRAKPSESRHPGPGSFGRGGSLGLGGGGGMGPREAEPGELGIALRGGGAADPPFCPHYEKVSGDYGHPVYIVQDGPPQSPPNIYYKV
# Biological target: Nipah virus attachment (G) glycoprotein fused to Myc-TurboID (Nipah virus) (UniProt Q9IH62)
# Experiment: proximity labelling
binder,measurement,value
B1,binding,binds
